Percent effect of library compounds

Sequences of proteins named here, by UniProt entry; tags and fusion partners are left off.
UniProt P9WNZ1, whole entry: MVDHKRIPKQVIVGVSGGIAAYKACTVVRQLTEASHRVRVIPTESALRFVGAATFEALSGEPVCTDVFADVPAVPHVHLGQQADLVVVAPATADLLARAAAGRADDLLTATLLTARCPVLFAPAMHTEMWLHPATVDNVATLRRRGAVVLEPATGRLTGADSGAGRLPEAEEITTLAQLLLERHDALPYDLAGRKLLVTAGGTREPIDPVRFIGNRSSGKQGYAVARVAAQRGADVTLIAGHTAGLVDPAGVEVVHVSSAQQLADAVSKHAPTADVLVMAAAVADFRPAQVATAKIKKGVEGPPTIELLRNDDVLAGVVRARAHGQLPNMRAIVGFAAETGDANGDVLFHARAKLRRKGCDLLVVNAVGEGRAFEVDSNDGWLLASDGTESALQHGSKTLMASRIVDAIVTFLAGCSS
UniProt P9WFT3, whole entry: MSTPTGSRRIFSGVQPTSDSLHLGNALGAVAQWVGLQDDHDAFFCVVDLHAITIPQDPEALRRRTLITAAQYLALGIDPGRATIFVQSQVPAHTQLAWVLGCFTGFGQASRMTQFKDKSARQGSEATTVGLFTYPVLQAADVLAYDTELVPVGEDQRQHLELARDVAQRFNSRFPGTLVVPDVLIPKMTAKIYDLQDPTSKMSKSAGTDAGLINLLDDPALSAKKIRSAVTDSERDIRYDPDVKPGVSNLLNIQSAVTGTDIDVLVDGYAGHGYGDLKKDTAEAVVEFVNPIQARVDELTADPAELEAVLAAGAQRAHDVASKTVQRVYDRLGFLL
UniProt I6X8D2, whole entry: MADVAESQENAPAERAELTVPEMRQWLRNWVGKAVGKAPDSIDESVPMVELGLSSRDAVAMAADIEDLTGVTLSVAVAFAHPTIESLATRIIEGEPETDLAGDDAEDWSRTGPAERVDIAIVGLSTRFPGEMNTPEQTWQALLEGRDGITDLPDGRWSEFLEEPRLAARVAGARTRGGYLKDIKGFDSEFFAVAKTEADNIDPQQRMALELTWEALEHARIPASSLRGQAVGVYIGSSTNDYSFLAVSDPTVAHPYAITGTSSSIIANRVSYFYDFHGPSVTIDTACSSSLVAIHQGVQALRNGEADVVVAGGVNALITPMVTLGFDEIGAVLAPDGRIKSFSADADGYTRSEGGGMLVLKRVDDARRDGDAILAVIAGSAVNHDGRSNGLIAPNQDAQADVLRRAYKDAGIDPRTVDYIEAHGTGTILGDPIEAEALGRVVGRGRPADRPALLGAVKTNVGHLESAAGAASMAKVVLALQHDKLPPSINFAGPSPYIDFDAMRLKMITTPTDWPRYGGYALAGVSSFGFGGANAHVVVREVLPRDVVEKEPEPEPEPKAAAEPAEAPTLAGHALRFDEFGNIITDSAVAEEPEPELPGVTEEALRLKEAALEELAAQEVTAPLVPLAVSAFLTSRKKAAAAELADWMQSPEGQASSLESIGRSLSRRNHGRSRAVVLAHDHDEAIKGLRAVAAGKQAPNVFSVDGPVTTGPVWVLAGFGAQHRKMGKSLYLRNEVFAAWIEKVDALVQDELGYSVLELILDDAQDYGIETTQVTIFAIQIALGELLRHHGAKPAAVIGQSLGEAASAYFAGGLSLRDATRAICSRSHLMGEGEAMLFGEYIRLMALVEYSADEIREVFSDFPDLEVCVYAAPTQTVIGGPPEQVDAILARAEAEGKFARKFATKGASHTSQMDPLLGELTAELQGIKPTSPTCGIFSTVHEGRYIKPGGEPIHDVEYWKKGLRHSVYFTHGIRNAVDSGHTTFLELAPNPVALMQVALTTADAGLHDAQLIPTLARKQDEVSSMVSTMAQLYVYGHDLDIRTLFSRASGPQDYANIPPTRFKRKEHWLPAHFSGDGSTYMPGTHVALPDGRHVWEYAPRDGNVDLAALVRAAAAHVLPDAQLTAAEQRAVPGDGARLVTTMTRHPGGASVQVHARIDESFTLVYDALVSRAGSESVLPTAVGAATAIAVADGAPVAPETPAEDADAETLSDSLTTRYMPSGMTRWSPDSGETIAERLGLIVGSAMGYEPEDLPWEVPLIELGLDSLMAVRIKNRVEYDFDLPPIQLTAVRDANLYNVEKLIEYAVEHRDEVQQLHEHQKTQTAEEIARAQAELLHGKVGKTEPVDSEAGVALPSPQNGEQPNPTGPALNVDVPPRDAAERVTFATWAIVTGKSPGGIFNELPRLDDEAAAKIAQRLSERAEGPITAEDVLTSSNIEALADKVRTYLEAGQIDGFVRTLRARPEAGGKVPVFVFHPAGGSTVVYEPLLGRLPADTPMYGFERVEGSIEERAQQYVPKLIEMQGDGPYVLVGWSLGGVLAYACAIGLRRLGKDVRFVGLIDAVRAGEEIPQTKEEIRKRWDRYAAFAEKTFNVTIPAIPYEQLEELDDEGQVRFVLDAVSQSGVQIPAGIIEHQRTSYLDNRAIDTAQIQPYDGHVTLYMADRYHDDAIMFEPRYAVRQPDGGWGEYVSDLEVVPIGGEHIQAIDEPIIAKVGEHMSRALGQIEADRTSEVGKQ

The values are deposited in ChEMBL (CHEMBL3988442, “University of Dundee, Small-Polar-MMV Screening Library” (2021)).

A: 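Enzyme assay of CoaBC with a phosphate dye (Biomol Green) read at 650 nm. Target: Coenzyme A biosynthesis protein CoaBC, Mycobacterium tuberculosis (UniProt P9WNZ1). Compounds at 30 µM. Higher reads as stronger inhibition, judged from the few compounds that gave an IC50. Most strong results did not repeat in a second test. About 67,000 compounds were tested under these conditions; 0.06% (about 40) showed 50% or more at least once.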
B: 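Tryptophan-tRNA ligase, Mycobacterium tuberculosis (UniProt P9WFT3). Enzyme assay of tryptophanyl-tRNA synthetase; the read-out is not stated. Tested at 10 µM. Direction is not recorded; retested compounds ran higher, which suggests that high means inhibition. About 65,000 compounds were tested under these conditions; 0.098% (about 64) showed 50% or more at least once.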
C: 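Enzyme assay of the thioesterase domain of polyketide synthase 13; the read-out is not stated. Target: Polyketide synthase Pks13, Mycobacterium tuberculosis (UniProt I6X8D2). Concentration: 30 µM. The record gives no direction; the compounds picked for IC50 retests had high values, so higher reads as stronger inhibition. About 67,000 compounds were tested under these conditions; 0.46% (about 300) showed 50% or more at least once.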

Results are given as percent effect. How 0% and 100% were set is not recorded. Most values in the screen are low, and negative values occur. Compounds were drawn at random from those tested, without regard to their results. A dash means the value is not listed here; it may have been measured.

SMILES	A	B	C
Cc1nc(COCC2CNCc3nccn3C2)cs1 (centres undefined)	-	-5.286%	12.81%
Cc1cnn(CCNCc2nnc(-c3ccccc3)o2)c1	-8.311%	0.8518%	-12.31%
CC(C)[C@H](NC(=O)NC1CCS(=O)(=O)C1)C(=O)NCc1cccnc1 (some centres undefined)	2.019%	-1.005%	-24.16%
Cc1nn(C2CCCC2)c2c1C(c1ccc3c(c1)OCO3)SCC(=O)N2 (centres undefined)	1.646%	-1.356%	-55.72%
CC(C)OCC(=O)N1CCC(c2ncncc2-c2ccnc(N)c2)C1 (centres undefined)	7.601%	-4.008%	5.146%
Cn1ccnc1CNC(=O)N(CCCO)C1CCc2ccccc21 (centres undefined)	3.306%	-3.259%	8.685%
Cc1cc(CN2CCC(N(C)Cc3noc(C4CC4)n3)C2)no1 (centres undefined)	1.695%	13.85%	-19.33%
Cc1cccc(N2CCC(NC(=O)CCCc3cccs3)CC2)n1	12.58%	4.49%	-
COc1cccc(COCC(O)CN2CC(n3cccn3)C2)c1 (centres undefined)	5.851%	-2.201%	-4.547%
CCc1nc(N2CCCC(CCCOC)(C(=O)O)C2)ncc1C (centres undefined)	2.781%	1.837%	-25.47%
Cc1cnc(N2C[C@@H]3[C@@H](C2)OCC(=O)N3C)nc1	-	-0.4845%	-31.01%
CS(=O)(=O)CCC(=O)NC(Cc1ccccc1)C1CC1 (centres undefined)	15.08%	0%	-19.91%
CN(C)S(=O)(=O)Nc1ccc(-n2nccc2C(F)(F)F)cc1	-0.1626%	-5.133%	-3.87%
Cc1ccoc1C(=O)NCC(Cc1ccc(F)cc1)C(N)=O (centres undefined)	8.462%	1.642%	-21.2%
COC(=O)c1cccc(CNC(=O)NCCC(F)(F)F)c1	2.564%	-7.319%	-6.743%
Cc1noc(C)c1-c1cc(CCC2CN(C(=O)CN)CCO2)ncn1 (centres undefined)	-0.7398%	-1.319%	7.976%
O=C(CC1CC1)N1CCC(O)(CN2CCN(c3ccccc3)CC2)C1 (centres undefined)	7.838%	12.57%	0.1004%
CO[C@@H]1CN(c2ccccc2)S(=O)(=O)[C@@]12CCN(S(C)(=O)=O)C2	-1.695%	-	-37.69%
Cc1ccc(C(=O)N2CCCCC2c2[nH]ncc2S(C)(=O)=O)s1 (centres undefined)	-3.155%	-	-30.74%
CC(C)CC(=O)NCC(O)c1c(F)cccc1F (centres undefined)	1.503%	1.651%	-24.41%
CCC(CC)(CNC(=O)OC(C)(C)C)NC(=O)C1CCOCC1	-5.941%	-0.4841%	-15.13%
Cc1csc(C(=O)N2CCC(O)(CN3CCc4ccccc4C3)C2)c1 (centres undefined)	1.699%	-	9.182%
O=C(CNC(=O)c1ccc(Cl)cc1)Nc1nccs1	-1.297%	7.685%	-6.965%
CCN1CCN(c2cncc(Cl)n2)CC1	-2.149%	-1.175%	-5.752%
c1cnc(N2CCCC(NCc3cccc4c3OCCO4)C2)nc1 (centres undefined)	-0.1186%	0.07825%	-8.99%
c1csc(CN2CCc3nnc(COc4cncnc4)n3CC2)c1	-3.361%	2.964%	7.897%
COCCN1CCC(c2nc3c([nH]2)CC(C)(C)CNC3=O)CC1	5.325%	-1.016%	-26.88%
FC(F)Oc1ccccc1CNCc1cc(Br)c2c(c1)OCO2	-1.739%	1.638%	-34.82%
COc1no[n+]([O-])c1-c1ccccc1	-23.7%	-2.67%	-9.346%
CCS(=O)(=O)N1CCC2(CC(=O)N(c3cccc(C)c3)C2)C1 (centres undefined)	2.919%	-2.204%	-14.72%
O=C(Cc1ccsc1)N1CCC(O)(CN2CCc3ccccc3C2)C1 (centres undefined)	3.398%	-	11.52%
Cc1nc2c(c(=O)n1C)CCN(Cc1cc3cc[nH]c3cn1)CC2	-2.037%	1.883%	10.04%
COCC1CC2(CCN(Cc3cccc(C#N)c3)CC2)CN1C(C)C (centres undefined)	-6.303%	-2.964%	3.219%
CC(C)Cc1nc(CN2CCN(CC(O)c3ccccc3)CC2)no1 (centres undefined)	8.27%	-1.789%	-10.3%
CC1CNC(=O)CCN1Cc1cc(O)c2cccc(F)c2n1 (centres undefined)	-5.115%	-4.567%	-1.152%
COc1cccc2c1CCCCN2C(=O)c1oc(C)nc1C	-1.217%	-0.07262%	-16.25%
NC(=O)C(NC(=O)COCCc1ccccc1)c1ccccc1F (centres undefined)	0.3241%	1.687%	4.783%
CCS(=O)(=O)N1CCC2(CC1)CN(CC1CCOC1)c1ccccc12 (centres undefined)	-2.716%	-	-28.47%
Cc1nc(CC2CCN(Cc3ccc(CCC(C)(C)O)cc3)CC2)no1	4.183%	3.166%	-28.07%
Cc1ccc(N2CCCC(NCc3ccc4c(c3)OCCO4)C2)nn1 (centres undefined)	-1.746%	-1.554%	0.6661%
CCN(Cc1ccc2c(c1)OCO2)C(=O)NC(C)Cn1ccnc1 (centres undefined)	4.773%	6.749%	-24.07%
Clc1ccccc1-c1nc(CNC2CCc3ncnn3C2)co1 (centres undefined)	-0.9032%	-0.09737%	2.695%
O=C1NC(=O)c2c3c(nc(O)c21)CCCC3	-0.6135%	-	-2.947%